T1: Flag-CARD19 (caspase activation and recruitment domain 19) (UniProt Q9D1I2)
T1 sequence: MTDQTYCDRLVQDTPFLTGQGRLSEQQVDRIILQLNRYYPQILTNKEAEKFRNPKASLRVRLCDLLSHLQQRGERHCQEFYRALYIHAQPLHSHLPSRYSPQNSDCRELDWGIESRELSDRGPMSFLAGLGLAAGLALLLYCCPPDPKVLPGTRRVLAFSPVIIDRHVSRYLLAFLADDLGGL

By UniProt entry, the sequences of proteins in these tests, tags left out.
UniProt Q9JMH9: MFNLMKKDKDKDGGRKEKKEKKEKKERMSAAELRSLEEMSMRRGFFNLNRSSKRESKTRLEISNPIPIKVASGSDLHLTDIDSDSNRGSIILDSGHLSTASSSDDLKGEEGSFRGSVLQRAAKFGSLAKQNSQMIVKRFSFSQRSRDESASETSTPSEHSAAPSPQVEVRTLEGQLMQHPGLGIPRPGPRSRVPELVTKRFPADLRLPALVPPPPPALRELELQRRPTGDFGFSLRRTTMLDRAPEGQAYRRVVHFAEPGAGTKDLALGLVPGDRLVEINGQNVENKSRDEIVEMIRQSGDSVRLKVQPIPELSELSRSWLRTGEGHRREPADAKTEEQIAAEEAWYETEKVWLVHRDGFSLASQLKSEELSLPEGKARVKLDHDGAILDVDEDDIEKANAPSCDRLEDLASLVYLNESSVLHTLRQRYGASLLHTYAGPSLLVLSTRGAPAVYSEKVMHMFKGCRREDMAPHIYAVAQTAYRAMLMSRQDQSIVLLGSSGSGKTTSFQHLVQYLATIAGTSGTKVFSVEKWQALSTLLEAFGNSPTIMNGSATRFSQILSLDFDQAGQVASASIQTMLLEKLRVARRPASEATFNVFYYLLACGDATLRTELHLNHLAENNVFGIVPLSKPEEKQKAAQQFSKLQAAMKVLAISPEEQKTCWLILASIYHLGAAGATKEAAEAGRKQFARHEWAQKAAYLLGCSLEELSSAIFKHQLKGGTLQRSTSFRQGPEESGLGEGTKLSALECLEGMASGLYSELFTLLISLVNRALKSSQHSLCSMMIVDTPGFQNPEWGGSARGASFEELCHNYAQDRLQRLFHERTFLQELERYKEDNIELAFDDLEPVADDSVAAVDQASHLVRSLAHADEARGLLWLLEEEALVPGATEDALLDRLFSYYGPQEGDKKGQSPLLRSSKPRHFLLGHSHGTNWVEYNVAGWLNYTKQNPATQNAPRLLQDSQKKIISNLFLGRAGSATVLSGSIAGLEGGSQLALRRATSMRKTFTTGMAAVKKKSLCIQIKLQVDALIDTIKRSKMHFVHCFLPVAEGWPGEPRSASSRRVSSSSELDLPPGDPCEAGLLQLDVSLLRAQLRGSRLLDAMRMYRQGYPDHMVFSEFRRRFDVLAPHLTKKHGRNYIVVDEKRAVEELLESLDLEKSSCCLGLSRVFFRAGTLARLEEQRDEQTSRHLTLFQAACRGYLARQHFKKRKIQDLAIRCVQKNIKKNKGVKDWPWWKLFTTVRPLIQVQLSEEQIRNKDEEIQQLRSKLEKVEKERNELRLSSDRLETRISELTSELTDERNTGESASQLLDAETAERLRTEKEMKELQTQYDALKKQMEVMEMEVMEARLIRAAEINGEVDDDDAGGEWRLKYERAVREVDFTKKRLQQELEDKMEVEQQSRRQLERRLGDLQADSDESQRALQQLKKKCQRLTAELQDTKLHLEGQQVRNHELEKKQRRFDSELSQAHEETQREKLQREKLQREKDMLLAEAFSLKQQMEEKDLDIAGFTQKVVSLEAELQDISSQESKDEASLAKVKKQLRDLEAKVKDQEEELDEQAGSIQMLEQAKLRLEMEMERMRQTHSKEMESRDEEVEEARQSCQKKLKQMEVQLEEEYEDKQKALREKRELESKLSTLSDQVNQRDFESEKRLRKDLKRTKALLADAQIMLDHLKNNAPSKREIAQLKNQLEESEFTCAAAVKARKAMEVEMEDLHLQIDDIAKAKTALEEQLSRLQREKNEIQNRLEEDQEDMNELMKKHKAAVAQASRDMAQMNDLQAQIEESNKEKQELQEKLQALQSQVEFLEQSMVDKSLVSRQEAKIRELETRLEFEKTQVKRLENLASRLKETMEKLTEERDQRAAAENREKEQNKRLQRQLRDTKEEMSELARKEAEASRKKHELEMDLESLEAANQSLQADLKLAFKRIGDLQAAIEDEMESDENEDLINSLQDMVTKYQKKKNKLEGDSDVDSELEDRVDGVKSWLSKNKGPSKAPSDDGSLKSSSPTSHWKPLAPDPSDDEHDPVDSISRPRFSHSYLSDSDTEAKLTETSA

B1: mitochondrial inner membrane protein 19 (MIC19) (protein, UniProt Q9CRB9 1-227)
chain: MGGTASTRRVTFEADENENITVVKGIRLSENVIDRMKESSPSGSKSQRYSSVYGASVSDEDLKRRVAEELALEQAKKESEHQRRLKQARDLERERAAANEQLTRAVLRERISSEEERMKAKHLARQLEEKDRVMRKQDAFYKEQLARLEERSSEFYKVTTEEYQKAAEEVEAKFKRYEYHPVCADLQTKILQCYRQNTQQTLSCSALASQYMHCVNHAKQSMLEKGG
B2: sorting and assembly machinery component 50 (SAMM50) (protein, UniProt Q8BGH2 1-469)
chain: MGTVHARSLEPLPSSGTDFGALGEEAEFVEVEPEAKQEILENKDVVVQHVHFDGLGRTKDDIIICEIGEVFKAKNLIEVMRRSHEAREKLLRLGIFRQVDVLIDTCHGEDALPNGLDVTFEVTELRRLTGSYNTMVGNNEGSMVLGLKLPNLLGRAEKVTFQFSYGTKETSYGLSFFKPQPGNFERNFSVNLYKVTGQFPWSSLRETDRGVSAEYSFPLWKTSHTVKWEGVWRELGCLSRTASFAVRKESGHSLKSSLSHAMVIDSRNSSILPRRGALFKVNQELAGYTGGDVSFIKEDFELQLNKPLALDSVFSTSLWGGMLVPIGDKPSSIADRFYLGGPTSVRGFSMHSIGPQSEGDYLGGEAYWAGGLHLYTPLPFRPGQGGFGELFRTHFFLNAGNLCNLNYGEGPKAHIRKLAECIRWSYGAGVVLRLGNIARLELNYCIPMGVQGGDRICDGVQFGAGIRFL

These are yes or no findings as the source states them, for the method shown. In cells and extracts the contact can be indirect. A yes stands for co-enrichment or nearness to the bait. Other partners may have been found. Where a sequence is shown, tags or fusion partners need not be part of it.

For this experiment, the target named is T1, Flag-CARD19 (caspase activation and recruitment domain 19). The experiment can be described thus: affinity purification with mass spectrometry; co-immunoprecipitated proteins from BV2 cells, SDS-PAGE, Coomassie staining, nano-HPLC and Q-Exactive MS, MaxQuant search of the UniProt Mus musculus database; precipitating antibody not stated for this experiment.
For the molecule Myo18a (from UniProt Q9JMH9 1-2050), the binding result is on record as “binds”.
The entry for B1 is “binds”; for B2 it is “binds”.

The values are drawn from article PMC13378934.
